# Measurements reported in patent US7893197B2, “Relaxin-3 chimeric polypeptides and their preparation and use” (Janssen Pharmaceutica N.V., priority 2005, dated 2011).
# Amino acid sequences for entries named in this document (tags omitted). A change or cut given only in a name is not applied to a line headed by its entry.
# UniProt Q8WXD0: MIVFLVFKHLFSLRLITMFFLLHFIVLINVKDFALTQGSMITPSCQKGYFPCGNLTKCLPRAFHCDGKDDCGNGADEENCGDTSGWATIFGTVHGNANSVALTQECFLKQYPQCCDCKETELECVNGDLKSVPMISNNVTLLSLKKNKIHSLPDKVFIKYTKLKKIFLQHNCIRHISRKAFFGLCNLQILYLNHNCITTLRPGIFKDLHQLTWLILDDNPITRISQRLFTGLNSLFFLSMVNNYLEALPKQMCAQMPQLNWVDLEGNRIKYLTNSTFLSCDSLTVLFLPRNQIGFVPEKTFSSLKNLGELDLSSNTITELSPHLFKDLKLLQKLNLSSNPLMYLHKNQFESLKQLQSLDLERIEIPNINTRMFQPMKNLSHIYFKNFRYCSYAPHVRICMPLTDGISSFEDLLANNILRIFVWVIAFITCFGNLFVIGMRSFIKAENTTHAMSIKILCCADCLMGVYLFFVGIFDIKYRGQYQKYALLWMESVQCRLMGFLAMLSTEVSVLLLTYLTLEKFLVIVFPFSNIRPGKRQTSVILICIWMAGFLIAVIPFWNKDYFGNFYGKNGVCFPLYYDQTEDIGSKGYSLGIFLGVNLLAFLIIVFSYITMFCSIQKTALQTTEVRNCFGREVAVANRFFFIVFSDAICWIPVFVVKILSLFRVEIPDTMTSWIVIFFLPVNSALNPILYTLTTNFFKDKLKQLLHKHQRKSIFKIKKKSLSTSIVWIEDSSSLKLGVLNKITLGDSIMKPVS
# Part of at least one peptide drawing is inferred or uncertain, most often the ends.
# Assays:
# LGR7 = target: T1, LGR7 (Homo sapiens, UniProt Q9HBX9); assay: Stimulation of β-galactosidase expression in SK-N-MC/β-gal cells; assay type: cell-based
# T1 construct: Human LGR7 cDNA containing the complete coding region was PCR amplified; expressed in transfected cells
# T1 sequence (Q9HBX9 1-757): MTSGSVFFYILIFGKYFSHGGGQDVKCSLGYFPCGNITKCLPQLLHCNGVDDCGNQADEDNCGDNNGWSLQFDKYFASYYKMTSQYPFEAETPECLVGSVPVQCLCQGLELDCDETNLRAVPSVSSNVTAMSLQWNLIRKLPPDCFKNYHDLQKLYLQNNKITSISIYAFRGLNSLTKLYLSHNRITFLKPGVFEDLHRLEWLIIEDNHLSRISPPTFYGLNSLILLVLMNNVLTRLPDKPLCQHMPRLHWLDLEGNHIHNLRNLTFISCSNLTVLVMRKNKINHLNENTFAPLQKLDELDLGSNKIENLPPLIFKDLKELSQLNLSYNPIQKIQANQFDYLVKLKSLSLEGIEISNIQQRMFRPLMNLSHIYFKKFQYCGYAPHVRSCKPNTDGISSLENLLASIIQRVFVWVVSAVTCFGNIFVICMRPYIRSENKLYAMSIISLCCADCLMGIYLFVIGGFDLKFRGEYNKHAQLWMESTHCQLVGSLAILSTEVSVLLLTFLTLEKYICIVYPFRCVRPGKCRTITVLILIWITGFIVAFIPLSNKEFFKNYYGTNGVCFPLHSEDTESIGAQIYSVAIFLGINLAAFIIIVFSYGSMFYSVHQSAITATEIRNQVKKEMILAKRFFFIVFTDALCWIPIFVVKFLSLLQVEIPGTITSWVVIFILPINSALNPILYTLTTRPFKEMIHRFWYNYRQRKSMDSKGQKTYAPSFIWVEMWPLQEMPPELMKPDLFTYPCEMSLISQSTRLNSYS
# Protocol: (§1) FIGS. 1A-1D show the activation of GPCR135 and GPCR142 by relaxin-3 B-chain, but not of LGR7 or LGR8. In FIG. 1A, SK-N-MC/β-gal cells expressing human GPCR135 were stimulated with relaxin-3, relaxin-3 B-chain, porcine relaxin, or INSL3 at various concentrations to inhibit the forskolin stimulated β-galactosidase expression. Forskolin was added to cells at a final concentration of 5 μM to stimulate the β-galactosidase expression. FIG. 1B depicts results for SK-N-MC/β-gal cells expressing human GPCR142 stimulated as in FIG. 1A. […] The intracellular β-galactosidase activities were measured by a colorimetric assay using CRGP as the substrate and reading the absorbance at a wavelength of 570 nm. […]
# (§2) FIGS. 4A-4D illustrate the evaluation of the agonist activity of relaxin-3 chimeric polypeptides in biofunctional assays. […] Intracellular β-galactosidase activity was measured by a colorimetric assay using CRGP as the substrate and reading the absorbance at wavelength of 570 nm. […]
# (§3) For all cells, after adding the chimeric polypeptides, cells were incubated for 6 additional hours in 37° C. incubator. The media was then aspirated and the β-galactosidase activities measured as previously described (Liu et al., 2001, Molecular Pharmacology, 59:420-426). The results were analyzed by Prism 3.0 software. […]
# LGR8 = target: T2, LGR8 (Homo sapiens, UniProt Q8WXD0); assay: as above; assay type: cell-based; settings: highest concentration tested 1 μM
# T2 construct: Human LGR8 cDNA containing the complete coding region was PCR amplified; expressed in transfected cells
# Protocol: as §1, §2, §3
compound,measurement,setting,value
"CC[C@H](C)[C@H](NC(=O)[C@H](Cc1ccccc1)NC(=O)[C@H](CCC(=O)O)NC(=O)[C@H](CCCNC(=N)N)NC(=O)CNC(=O)[C@H](CS)NC(=O)[C@H](CC(C)C)NC(=O)[C@H](CCCNC(=N)N)NC(=O)[C@@H](NC(=O)CNC(=O)[C@H](Cc1ccc(O)cc1)NC(=O)[C@@H]1CCCN1C(=O)[C@H](C)NC(=O)[C@H](C)NC(=O)[C@@H](N)CCCNC(=N)N)C(C)C)C(=O)N[C@@H](CCCNC(=N)N)C(=O)N[C@@H](C)C(=O)N[C@H](C(=O)N[C@H](C(=O)N[C@@H](Cc1ccccc1)C(=O)N[C@H](C(=O)N[C@@H](CS)C(=O)NCC(=O)NCC(=O)N[C@@H](CO)C(=O)N[C@@H](CCCNC(=N)N)C(=O)N[C@@H](Cc1c[nH]c2ccccc12)C(=O)O)[C@@H](C)O)[C@@H](C)CC)C(C)C [relaxin-3 B-chain, reference compound]","activation of LGR7, in words",LGR7,did not activate
same,"activation of LGR8, in words",LGR8,did not activate
